Measurements as given in doi:10.1101/672576.
Where two headings read alike, the source gives them in different places. No constants are given. Whether binding was seen depends on the method and setting. Some entries that bind do so weakly or less than the wild type. Where a sequence is shown, tags or fusion partners need not be part of it.

The chains behind the UniProt entries cited, without tags or fusion partners. Where a name states a change or a piece, a line headed by the entry shows the natural chain unless it says otherwise.
UniProt P30153: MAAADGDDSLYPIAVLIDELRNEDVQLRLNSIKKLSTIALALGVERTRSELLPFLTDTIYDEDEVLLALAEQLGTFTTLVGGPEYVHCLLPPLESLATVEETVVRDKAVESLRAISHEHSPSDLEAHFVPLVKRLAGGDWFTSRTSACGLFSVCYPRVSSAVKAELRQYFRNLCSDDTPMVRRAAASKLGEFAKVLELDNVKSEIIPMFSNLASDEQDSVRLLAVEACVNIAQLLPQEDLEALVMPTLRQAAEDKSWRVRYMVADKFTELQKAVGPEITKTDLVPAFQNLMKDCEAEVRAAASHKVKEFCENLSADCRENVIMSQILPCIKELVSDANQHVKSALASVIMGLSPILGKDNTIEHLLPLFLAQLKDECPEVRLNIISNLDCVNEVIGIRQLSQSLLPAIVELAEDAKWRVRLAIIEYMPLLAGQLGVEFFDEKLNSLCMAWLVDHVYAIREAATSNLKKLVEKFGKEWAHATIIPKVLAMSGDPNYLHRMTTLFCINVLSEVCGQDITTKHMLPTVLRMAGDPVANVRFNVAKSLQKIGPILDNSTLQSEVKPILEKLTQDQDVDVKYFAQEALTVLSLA

How the values were obtained:
[1] = target: GST-tagged PP2A core enzyme (Aα-Cα heterodimer) (UniProt P30153); assay: pull-down
[2] = target: GST-tagged PP2A core enzyme (Aα-Cα heterodimer) (UniProt P30153); assay: pull-down; remark: listed apart in the source

binding [1]: binds | binding [2]: binds
B1: PR70 subunit (purified, GST pull-down) (protein, UniProt Q9Y5P8 1-575)
chain: MPPGKVLQPVLKMKVDELFLYWLSEASTQRMLQDCLRRIKAPGRDQPTPGDGEQPGAWPTAPLAAPRPSGLEPPGTPGPGPALPLGAASSPRNAPHVRGTRRSAGTRVVQTRKEEPLPPATSQSIPTFYFPRGRPQDSVNVDAVISKIESTFARFPHERATMDDMGLVAKACGCPLYWKGPLFYGAGGERTGSVSVHKFVAMWRKILQNCHDDAAKFVHLLMSPGCNYLVQEDFVPFLQDVVNTHPGLSFLKEASEFHSRYITTVIQRIFYAVNRSWSGRITCAELRRSSFLQNVALLEEEADINQLTEFFSYEHFYVIYCKFWELDTDHDLLIDADDLARHNDHALSTKMIDRIFSGAVTRGRKVQKEGKISYADFVWFLISEEDKKTPTSIEYWFRCMDLDGDGALSMFELEYFYEEQCRRLDSMAIEALPFQDCLCQMLDLVKPRTEGKITLQDLKRCKLANVFFDTFFNIEKYLDHEQKEQISLLRDGDSGGPELSDWEKYAAEEYDILVAEETAGEPWEDGFEAELSPVEQKLSALRSPLAQRPFFEAPSPLGAVDLYEYACGDEDLEPL
